Laboratory results as given in PMC6821156.
These are yes or no findings as the source states them, for the method shown. Binding seen in cells or lysates may run through a third protein. A yes stands for co-enrichment or nearness to the bait. Other partners may have been found. For part of these data: A no says only that the protein was not detected with the bait. For part of these data: Where a sequence is shown, tags or fusion partners need not be part of it. One block for each binder: values may come before it.

Columns and labels:
[1] = target: T1, Flag-tagged U2AF1a (endogenous, U2af1a-only Tsc1-/- MEF cell line) (mouse (endogenous in Tsc1-/- MEFs)) (UniProt Q9D883); assay: affinity purification with mass spectrometry; cells cross-linked with 0.2% formaldehyde for 10 min; lysis buffer with 300 mM NaCl, 0.5% Empigen, 0.5% NP-40; anti-Flag M2 magnetic beads, in the presence of RNase A, eluted with 3x Flag peptide; label-free quantification against a control Flag-IP
T1 sequence: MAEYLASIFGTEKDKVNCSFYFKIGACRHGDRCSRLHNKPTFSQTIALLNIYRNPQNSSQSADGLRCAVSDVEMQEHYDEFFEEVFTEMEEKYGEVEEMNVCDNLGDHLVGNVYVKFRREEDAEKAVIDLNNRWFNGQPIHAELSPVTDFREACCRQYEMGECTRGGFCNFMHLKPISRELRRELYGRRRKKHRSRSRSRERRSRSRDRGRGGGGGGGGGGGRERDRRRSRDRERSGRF

[2] = target: Flag-tagged U2AF1b (endogenous, U2af1b-only Tsc1-/- MEF cell line) (mouse (endogenous in Tsc1-/- MEFs)); assay: as above

binding [1]: no binding
binding [2]: binds
B1: MBNL2 (endogenous, MEFs) (protein, UniProt Q8C181 1-373)
chain: MALNVAPVRDTKWLTLEVCRQYQRGTCSRSDEECKFAHPPKSCQVENGRVIACFDSLKGRCSRENCKYLHPPTHLKTQLEINGRNNLIQQKTAAAMLAQQMQFMFPGTPLHPVPTFPVGPTIGTNAAISFAPYLAPVTPGVGLVPTEVLPTTPVIVPGSPPVTVPGSTATQKLLRTDKLEVCREFQRGNCARGETDCRFAHPADSTMIDTNDNTVTVCMDYIKGRCMREKCKYFHPPAHLQAKIKAAQHQANQAAVAAQAAAAAATVMTQSTAKALKRPLEATVDLAFPPGALHPLPKRQALEKSNGASTVFNPSVLHYQQALTSAQLQQHTAFIPTVPMMHSATSATVSAATTPATSVPFAATATANQIILK

binding [1]: binds
B2: SF3A1 (protein, UniProt Q8K4Z5 1-791)
chain: MQAGPVQAVPPPPPVATESKQPIEEEASSKEDPTPSKPVVGIIYPPPEVRNIVDKTASFVARNGPEFEARIRQNEINNPKFNFLNPNDPYHAYYRHKVSEFKEGKAQEPSAAIPKVMQQQQQATQQQLPQKVQAQVIQETIVPKEPPPEFEFIADPPSISAFDLDVVKLTAQFVARNGRQFLTQLMQKEQRNYQFDFLRPQHSLFNYFTKLVEQYTKILIPPKGLFSKLKKEAENPREVLDQVCYRVEWAKFQERERKKEEEEKEKERVAYAQIDWHDFVVVETVDFQPNEQGNFPPPTTPEELGARILIQERYEKFGESEEVEMEVESDEEDQEKAEETPSQLDQDTQVQDMDEGSDDEEEGQKVPPPPETPMPPPLPPTPDQVIVRKDYDPKASKPLPPAPAPDEYLVSPITGEKIPASKMQEHMRIGLLDPRWLEQRDRSIREKQSDDEVYAPGLDIESSLKQLAERRTDIFGVEETAIGKKIGEEEIQKPEEKVTWDGHSGSMARTQQAAQANITLQEQIEAIHKAKGLVPEDDTKEKIGPSKPNEIPQQPPPPSSATNIPSSAPPITSVPRPPAMPPPVRTTVVSAVPVMPRPPMASVVRLPPGSVIAPMPPIIHAPRINVVPMPPAAPPIMAPRPPPMIVPTAFVPAPPVAPVPAPAPMPPVHPPPPMEDEPPSKKLKTEDSLMPEEEFLRRNKGPVSIKVQVPNMQDKTEWKLNGQGLVFTLPLTDQVSVIKVKIHEATGMPAGKQKLQYEGIFIKDSNSLAYYNMASGAVIHLALKERGGRKK
